# This is one part of the list.
# B1: HFR-3 (Triticum aestivum) (protein)
# chain: MKGLLLCALALAFAAVTTHAQLQSCPTRCGKQADGMECPNNLCCSKDGYCGLGVDYCSAGAGCQSGACYDNKICGAQANGTLCRNNHCCSSGGRCGYGREYCSNGCQGGPCWADLKCGHLDNGKLCPNNLCCSQYGYCGLGPEFCGTGCQNGACSTDKPCGNKANGAPCTNNYCCSQYGSCGLGKDYCGTGCQNGACN
# Assays:
# Assay in all cases: glycan array binding signal (z-score within array); higher = stronger binding
# Conditions in all cases: glycan notation: IUPAC condensed, linker removed
# [1] = target: Gal(b1-3)GlcNAc(b1-2)Man(a1-3)[GlcNAc(b1-4)][Gal(b1-3)GlcNAc(b1-2)Man(a1-6)]Man(b1-4)GlcNAc(b1-4)GlcNAc
# Outline: (§1)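 Glycan array data were curated from 3228 arrays in the Consortium for Functional Glycomics database and kept only where the protein sequence was available. Glycan names were converted to IUPAC-condensed notation, and columns mapping to the same glycan were averaged. The binding signal is a within-array Z-score, averaged across arrays of the same protein sequence at different concentrations or buffers and across linkers. Negative Z-scores can be read as non-binding.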
# [2] = target: Gal(b1-3)GlcNAc(b1-2)[Gal(b1-3)GlcNAc(b1-6)]Man(a1-6)[Gal(b1-3)GlcNAc(b1-2)Man(a1-3)]Man(b1-4)GlcNAc(b1-4)GlcNAc
# Outline: as §1
# [3] = target: Gal(b1-3)GlcNAc(b1-3)Gal(b1-3)GlcNAc
# Outline: as §1
# [4] = target: Gal(b1-3)GlcNAc(b1-3)Gal(b1-4)Glc
# Outline: as §1
# [5] = target: Gal(b1-3)GlcNAc(b1-3)Gal(b1-4)GlcNAc
# Outline: as §1
# [6] = target: Gal(b1-3)GlcNAc(b1-3)Gal(b1-4)GlcNAc(b1-2)Man(a1-3)[Gal(b1-3)GlcNAc(b1-3)Gal(b1-4)GlcNAc(b1-2)Man(a1-6)]Man(b1-4)GlcNAc(b1-4)GlcNAc
# Outline: as §1
# [7] = target: Gal(b1-3)GlcNAc(b1-3)Gal(b1-4)GlcNAc(b1-2)[Gal(b1-3)GlcNAc(b1-3)Gal(b1-4)GlcNAc(b1-6)]Man(a1-6)[Gal(b1-3)GlcNAc(b1-3)Gal(b1-4)GlcNAc(b1-2)Man(a1-3)]Man(b1-4)GlcNAc(b1-4)[Fuc(a1-6)]GlcNAc
# Outline: as §1
# [8] = target: Gal(b1-3)GlcNAc(b1-3)Gal(b1-4)GlcNAc(b1-3)Gal(b1-4)GlcNAc(b1-2)[Gal(b1-3)GlcNAc(b1-3)Gal(b1-4)GlcNAc(b1-3)Gal(b1-4)GlcNAc(b1-6)]Man(a1-6)[Gal(b1-3)GlcNAc(b1-3)Gal(b1-4)GlcNAc(b1-3)Gal(b1-4)GlcNAc(b1-2)Man(a1-3)]Man(b1-4)GlcNAc(b1-4)[Fuc(a1-6)]GlcNAc
# Outline: as §1
# [9] = target: Gal(b1-3)GlcNAc(b1-3)Gal(b1-4)GlcNAc(b1-6)[Gal(b1-3)GlcNAc(b1-3)]Gal(b1-4)Glc
# Outline: as §1
# [10] = target: Gal(b1-3)GlcNAc(b1-3)Gal(b1-4)[Fuc(a1-3)]GlcNAc
# Outline: as §1
# [11] = target: Gal(b1-3)GlcNAc(b1-3)Gal(b1-4)[Fuc(a1-3)]GlcNAc(b1-6)[Gal(b1-3)GlcNAc(b1-3)]Gal(b1-4)Glc
# Outline: as §1
# [12] = target: Gal(b1-3)GlcNAc(b1-3)GalNAc
# Outline: as §1
# [13] = target: Gal(b1-3)GlcNAc(b1-6)Gal(b1-4)GlcNAc
# Outline: as §1
# [14] = target: Gal(b1-3)GlcNAc(b1-6)GalNAc
# Outline: as §1
# [15] = target: Gal(b1-3)GlcNAc(b1-6)[Gal(b1-3)]GalNAc
# Outline: as §1
# Gal(b1-3)GlcNAc6S = target: Gal(b1-3)GlcNAc6S
# Outline: as §1
# [16] = target: Gal(b1-3)[Fuc(a1-4)]GlcNAc
# Outline: as §1
# [17] = target: Gal(b1-3)[Fuc(a1-4)]GlcNAc(b1-2)Man
# Outline: as §1
# [18] = target: Gal(b1-3)[Fuc(a1-4)]GlcNAc(b1-2)Man(a1-3)[Gal(b1-3)[Fuc(a1-4)]GlcNAc(b1-2)Man(a1-6)]Man(b1-4)GlcNAc(b1-4)[Fuc(a1-6)]GlcNAc
# Outline: as §1
# [19] = target: Gal(b1-3)[Fuc(a1-4)]GlcNAc(b1-3)Gal(b1-3)[Fuc(a1-4)]GlcNAc
# Outline: as §1
# [20] = target: Gal(b1-3)[Fuc(a1-4)]GlcNAc(b1-3)Gal(b1-4)[Fuc(a1-3)]GlcNAc
# Outline: as §1
# [21] = target: Gal(b1-3)[Fuc(a1-4)]GlcNAc(b1-6)GalNAc
# Outline: as §1
# [22] = target: Gal(b1-3)[GlcNAc(b1-6)]GalNAc
# Outline: as §1
# [23] = target: Gal(b1-3)[Neu5Ac(a2-6)]GalNAc
# Outline: as §1
# [24] = target: Gal(b1-3)[Neu5Ac(a2-6)]GlcNAc(b1-4)Gal(b1-4)Glc
# Outline: as §1
# [25] = target: Gal(b1-3)[Neu5Ac(b2-6)]GalNAc
# Outline: as §1
# Gal(b1-4)Gal = target: Gal(b1-4)Gal
# Outline: as §1
# [26] = target: Gal(b1-4)GalNAc(a1-3)[Fuc(a1-2)]Gal(b1-4)GlcNAc
# Outline: as §1
# [27] = target: Gal(b1-4)GalNAc(b1-3)[Fuc(a1-2)]Gal(b1-4)GlcNAc
# Outline: as §1
# Gal(b1-4)Glc = target: Gal(b1-4)Glc
# Outline: as §1
# Gal(b1-4)Glc6S = target: Gal(b1-4)Glc6S
# Outline: as §1
# Gal(b1-4)GlcNAc = target: Gal(b1-4)GlcNAc
# Outline: as §1
# [28] = target: Gal(b1-4)GlcNAc(a1-6)Gal(b1-4)GlcNAc
# Outline: as §1
# Gal(b1-4)GlcNAc(b1-2)Man = target: Gal(b1-4)GlcNAc(b1-2)Man
# Outline: as §1
# [29] = target: Gal(b1-4)GlcNAc(b1-2)Man(a1-3)Man(b1-4)GlcNAc(b1-4)GlcNAc
# Outline: as §1
# [30] = target: Gal(b1-4)GlcNAc(b1-2)Man(a1-3)[Gal(b1-4)GlcNAc(b1-2)Man(a1-6)]Man(b1-4)GlcNAc(b1-4)GlcNAc
# Outline: as §1
# [31] = target: Gal(b1-4)GlcNAc(b1-2)Man(a1-3)[Gal(b1-4)GlcNAc(b1-2)Man(a1-6)]Man(b1-4)GlcNAc(b1-4)[Fuc(a1-6)]GlcNAc
# Outline: as §1
# [32] = target: Gal(b1-4)GlcNAc(b1-2)Man(a1-3)[Gal(b1-4)GlcNAc(b1-2)Man(a1-6)][Gal(b1-4)GlcNAc(b1-4)]Man(b1-4)GlcNAc(b1-4)[Fuc(a1-6)]GlcNAc
# Outline: as §1
# [33] = target: Gal(b1-4)GlcNAc(b1-2)Man(a1-3)[Gal(b1-4)GlcNAc(b1-2)Man(a1-6)][GlcNAc(b1-4)]Man(b1-4)GlcNAc(b1-4)[Fuc(a1-6)]GlcNAc
# Outline: as §1
# [34] = target: Gal(b1-4)GlcNAc(b1-2)Man(a1-3)[GlcNAc(b1-2)Man(a1-6)]Man(b1-4)GlcNAc(b1-4)GlcNAc
# Outline: as §1
# [35] = target: Gal(b1-4)GlcNAc(b1-2)Man(a1-3)[GlcNAc(b1-4)][Gal(b1-4)GlcNAc(b1-2)Man(a1-6)]Man(b1-4)GlcNAc(b1-4)GlcNAc
# Outline: as §1
# [36] = target: Gal(b1-4)GlcNAc(b1-2)Man(a1-3)[Man(a1-6)]Man(b1-4)GlcNAc(b1-4)GlcNAc
# Outline: as §1
# [37] = target: Gal(b1-4)GlcNAc(b1-2)Man(a1-6)Man(b1-4)GlcNAc(b1-4)GlcNAc
# Outline: as §1
# [38] = target: Gal(b1-4)GlcNAc(b1-2)Man(a1-6)[GlcNAc(b1-2)Man(a1-3)]Man(b1-4)GlcNAc(b1-4)GlcNAc
# Outline: as §1
# [39] = target: Gal(b1-4)GlcNAc(b1-2)Man(a1-6)[Man(a1-3)]Man(b1-4)GlcNAc(b1-4)GlcNAc
# Outline: as §1
binder,measurement,setting,value
B1,glycan array binding signal (z-score),[1],-0.132
same,glycan array binding signal (z-score),[2],-1
same,glycan array binding signal (z-score),[3],1.06
same,glycan array binding signal (z-score),[4],-0.246
same,glycan array binding signal (z-score),[5],-0.413
same,glycan array binding signal (z-score),[6],0.56
same,glycan array binding signal (z-score),[7],0.301
same,glycan array binding signal (z-score),[8],1.11
same,glycan array binding signal (z-score),[9],-0.123
same,glycan array binding signal (z-score),[10],0.11
same,glycan array binding signal (z-score),[11],-1.33
same,glycan array binding signal (z-score),[12],-0.437
same,glycan array binding signal (z-score),[13],-0.527
same,glycan array binding signal (z-score),[14],0.035
same,glycan array binding signal (z-score),[15],0.481
same,glycan array binding signal (z-score),Gal(b1-3)GlcNAc6S,-1.02
same,glycan array binding signal (z-score),[16],0.081
same,glycan array binding signal (z-score),[17],-0.057
same,glycan array binding signal (z-score),[18],-0.352
same,glycan array binding signal (z-score),[19],-0.365
same,glycan array binding signal (z-score),[20],-0.799
same,glycan array binding signal (z-score),[21],0.535
same,glycan array binding signal (z-score),[22],-0.111
same,glycan array binding signal (z-score),[23],0.174
same,glycan array binding signal (z-score),[24],-0.176
same,glycan array binding signal (z-score),[25],-1.48
same,glycan array binding signal (z-score),Gal(b1-4)Gal,-0.413
same,glycan array binding signal (z-score),[26],-0.5
same,glycan array binding signal (z-score),[27],-0.73
same,glycan array binding signal (z-score),Gal(b1-4)Glc,0.542
same,glycan array binding signal (z-score),Gal(b1-4)Glc6S,-0.282
same,glycan array binding signal (z-score),Gal(b1-4)GlcNAc,-0.853
same,glycan array binding signal (z-score),[28],-0.215
same,glycan array binding signal (z-score),Gal(b1-4)GlcNAc(b1-2)Man,-0.716
same,glycan array binding signal (z-score),[29],-0.057
same,glycan array binding signal (z-score),[30],-0.641
same,glycan array binding signal (z-score),[31],-0.352
same,glycan array binding signal (z-score),[32],-0.212
same,glycan array binding signal (z-score),[33],-0.204
same,glycan array binding signal (z-score),[34],-0.437
same,glycan array binding signal (z-score),[35],-1.47
same,glycan array binding signal (z-score),[36],-0.491
same,glycan array binding signal (z-score),[37],-0.488
same,glycan array binding signal (z-score),[38],-0.741
same,glycan array binding signal (z-score),[39],-0.608

# Random excerpt: four entries already listed.
binder,measurement,setting,value
B1,glycan array binding signal (z-score),[30],-0.641
same,glycan array binding signal (z-score),[19],-0.365
same,glycan array binding signal (z-score),[26],-0.5
same,glycan array binding signal (z-score),[37],-0.488

# Source: the supplement of paper PMC8728848
